Article PMC10246235
Results are given in words; binding and its absence hold for the method and conditions named. Binding seen in cells or lysates may run through a third protein. Here binding means that the protein was enriched with, or labelled near, the bait; the list need not be complete. Where a sequence is shown, tags or fusion partners need not be part of it.

Legend:
[1] = target: T1, MeeY-FLAG (Bacillus subtilis) (UniProt O34997); experiment: affinity purification with mass spectrometry; C-terminally FLAG-tagged bait captured on anti-FLAG M2 magnetic beads from B. subtilis lysate (overnight LB culture with 50 uM Mn; lysozyme, sonication, DNase, 1% Triton X-100), 30 °C 3 h, three PBS washes; eluted by heating at 95 °C for 10 min; LC-MS/MS, at least 2 peptides
T1 sequence: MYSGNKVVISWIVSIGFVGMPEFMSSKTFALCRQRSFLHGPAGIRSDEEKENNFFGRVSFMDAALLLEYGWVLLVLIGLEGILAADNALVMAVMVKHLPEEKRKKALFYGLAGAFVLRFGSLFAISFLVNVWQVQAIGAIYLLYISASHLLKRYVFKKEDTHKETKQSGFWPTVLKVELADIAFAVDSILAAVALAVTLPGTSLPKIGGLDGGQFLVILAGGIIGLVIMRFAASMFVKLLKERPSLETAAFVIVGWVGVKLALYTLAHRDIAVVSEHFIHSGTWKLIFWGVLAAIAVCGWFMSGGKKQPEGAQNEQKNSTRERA

[2] = target: T2, MeeF-FLAG (Bacillus subtilis) (UniProt O34447); experiment: as above
T2 sequence: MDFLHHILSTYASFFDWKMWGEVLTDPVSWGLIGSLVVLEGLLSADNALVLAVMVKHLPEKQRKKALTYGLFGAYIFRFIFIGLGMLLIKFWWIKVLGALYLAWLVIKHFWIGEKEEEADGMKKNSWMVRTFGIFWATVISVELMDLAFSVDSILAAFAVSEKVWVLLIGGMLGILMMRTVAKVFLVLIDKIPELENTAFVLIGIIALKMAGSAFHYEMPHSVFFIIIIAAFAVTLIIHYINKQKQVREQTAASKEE

[3] = target: T1, MeeY-FLAG (Bacillus subtilis); experiment: affinity purification with mass spectrometry; C-terminally FLAG-tagged bait captured on anti-FLAG M2 magnetic beads from B. subtilis lysate (overnight LB culture with 50 uM Mn; lysozyme, sonication, DNase, 1% Triton X-100), 30 °C 3 h, three PBS washes; eluted with glycine (pH 3) for 30 min at room temperature; LC-MS/MS, at least 2 peptides

AtpA (from UniProt P37808 1-502)
binding [1]: binds | binding [2]: binds | binding [3]: binds

AtpD (from UniProt P37809 1-473)
binding [3]: binds

AtpG (from UniProt P37810 1-287)
binding [1]: binds | binding [2]: binds

FrlO
binding [2]: binds

FtsH (from UniProt P37476 1-637)
binding [1]: binds | binding [2]: binds

MalA (from UniProt P54716 1-449)
binding [2]: binds

SsdC
binding [2]: binds
